Experimental data: US5019492A, “Photographic element and process comprising a blocked photographically useful compound” (Eastman Kodak Company, priority 1989, dated 1991)

Tests used:
[1] = Photographic element with blocked ETA compound: sensitometry after C-41 development with and without hydroxylamine sulfate; settings: for Relative Speed: control = 100; for Relative Gamma Difference: vs control
From the text: A green sensitized silver bromoiodide gelatin emulsion (0.7 micron grain size) was mixed with a coupler dispersion comprising cyan coupler C-1 dispersed in half its weight of di-n-butyl phthalate and a blocked ETA compound of the invention dispersed in twice its weight of N,N-diethyl lauramide. The resulting mixture was coated on a photographic film support according to the following format (amounts of each component are given in mg/m^2 with silver halide counted as silver):
OVERCOAT Gelatin (5382); bis(vinylsulfonyl-
LAYER: methyl) ether hardener (2% of
EMULSION Gelatin (3229); green-sensitized
LAYER: AgBrI emulsion (877); cyan coupler
C-1 (969); and a blocked ETA
Each photographic element was imagewise exposed to light through a graduated density test object in a commercial sensitometer to provide a developable latent image (3000° K. light source, 0-4 step wedge, with Wratten 99 plus 0.5ND filter. Wratten is a trademark). The resulting photographic film was then developed and processed in a commercial C-41 development process of Eastman Kodak Company, U.S.A. without the final stabilizer step. This process and the processing compositions for the process are described in, for example, British Journal of Photography Annual 1988, Pages 191-199. The development process was carried out with and without hydroxylamine sulfate (HAS) in the color developer solution.
Densitometric measurements made with red light are shown in Table II wherein the values in parentheses are for the samples processed in the developer without HAS. Dmin is the average fog level. Gamma is the maximum contrast between two density points which are 0.4 log E apart, taken as the difference from the gamma of the control sample which contains no blocked ETA compound. Photographic speed is also taken relative to the control sample (set at 100) and is measured at 0.15 density above fog.

[2] = Unblocking of shifted masking coupler in fixed unexposed strips (density at 520 nm)
Description: Each compound was dispersed in an equal weight of 2,4-di-t-pentylphenol and coated in the following format on a poly(ethylene terephthalate) film support (unless otherwise specified, component amounts are given in mg/m^2 with silver halide counted as silver):
(§1) OVERCOAT Gelatin (2691); bis(vinylsulfonyl-
(§2) LAYER: methyl) ether hardener (1.75% of
EMULSION Gelatin (3767); unsensitized AgBr
LAYER: emulsion (906); masking coupler
Unexposed strips of this coated element were soaked 1 minute in a fixing solution to remove silver halide, washed, and then immersed in one of the following processing solutions at temperatures conventionally used for processing in a KODAK C-41 process:
P-1: pH 10 carbonate buffer
P-2: pH 10 carbonate buffer with 0.024M hydroxylamine sulfate
P-3: C-41 color developer with hydroxylamine sulfate omitted
P-4: C-41 color developer solution containing hydroxylamine sulfate

[3] = Blocked masking coupler with main image coupler C-1 in a monochrome layer: green density and red image parameters; settings: 0.108 mmole/m^2; for Green Density @ Exp. High: high exposure; for Green Density @ Exp. High / Green Density @ Exp. Low: processed; for Green Density @ Exp. Low: low exposure; for Red Image Spd.: relative to control at 100; for Green Density @ Exp. None: unexposed fixed strips
From the text: Dispersions were made as in Example 3 but with added cyan coupler C-1 dispersed in half its weight of di-n-butyl phthalate. These were then coated in the following format (unless otherwise specified, component amounts are given in mg/m^2 with silver halide counted as silver):
as §1, §2
EMULSION Gelatin (3767); unsensitized AgBrI
LAYER: emulsion (1615); cyan image
coupler C-1 (754): masking coupler
FILM SUPPORT: with antihalation backing
Film strips of the above coatings were step-exposed through a Wratten 12 (minus blue) filter, processed (C-41) as in Example 2, and the photographic parameters measured as presented in Table V (density to green light was measured for unexposed fixed strips and for low and high exposure areas of processed strips; photographic speed of the red image is relative to the control at 100): […]

[4] = 0.215 mmole/m^2, developer with HAS
[5] = 0.215 mmole/m^2, developer without HAS
[6] = 0.431 mmole/m^2, developer with HAS
[7] = 0.431 mmole/m^2, developer without HAS
[8] = 1.076 mmole/m^2, developer with HAS
[9] = 1.076 mmole/m^2, developer without HAS
[10] = P-1 (pH 10 carbonate buffer): 10 Minutes
[11] = P-2 (pH 10 carbonate buffer with 0.024M hydroxylamine sulfate): 10 Minutes
[12] = P-3 (C-41 color developer, hydroxylamine sulfate omitted): 10 Minutes
[13] = P-4 (C-41 color developer containing hydroxylamine sulfate): 1 Minute
[14] = P-4 (C-41 color developer containing hydroxylamine sulfate): 10 Minutes

Row | SMILES | Dmin [1, 4] | Relative Speed [1, 4] | Relative Gamma Difference [1, 4] | Dmin [1, 5] | Relative Speed [1, 5] | Relative Gamma Difference [1, 5] | Dmin [1, 6] | Relative Speed [1, 6] | Relative Gamma Difference [1, 6] | Dmin [1, 7] | Relative Speed [1, 7] | Relative Gamma Difference [1, 7] | Dmin [1, 8] | Relative Speed [1, 8] | Relative Gamma Difference [1, 8] | Dmin [1, 9] | Relative Speed [1, 9] | Relative Gamma Difference [1, 9] | Density at 520 nm ([2]; Fixed Only) | Density at 520 nm [2, 10] | also measured
1 | CC1(C)CN(c2ccccc2)N=C1OC(=O)C1(C)CCCCC1=O (centres unmarked) [Compound 2] | 0.09 | 108 | +0.10 | 0.06 | 100 | -0.02 | 0.09 | 109 | -0.04 | 0.06 | 100 | -0.01 | 0.09 | 109 | -0.53 | 0.06 | 101 | -0.18 |  |  | 
2 | CC1(C)CN(c2ccccc2)N=C1OC(=O)C(C)(C)C(=O)c1ccccc1 [Compound 1] | 0.07 | 102 | -0.01 | 0.06 | 100 | -0.06 | 0.07 | 103 | -0.08 | 0.06 | 101 | -0.09 | 0.07 | 105 | -0.54 | 0.05 | 100 | -0.35 |  |  | 
3 | CCC(C)(C)c1ccc(OCCCCNC(=O)c2cc(Oc3ccc(N=Nc4cc(OC(C)C(=O)O)c5ccccc5c4O)cc3)c3ccccc3c2O)c(C(C)(C)CC)c1 (centres unmarked) [Compound 3U, reference compound] |  |  |  |  |  |  |  |  |  |  |  |  |  |  |  |  |  |  | 1.25 | 1.25 | Density at 520 nm [2, 11]: 1.25; Density at 520 nm [2, 12]: 1.25; Density at 520 nm [2, 13]: 1.25; Density at 520 nm [2, 14]: 1.25; Red Image Dmax [3]: 2.59; Red Image Gamma [3]: 2.24; Green Density @ Exp. High [3]: 0.40; Green Density @ Exp. Low [3]: 0.24; Red Image Spd. [3]: 82; Green Density @ Exp. None [3]: 0.21
4 | CCC(C)(C)c1ccc(OCCCCNC(=O)c2cc(Oc3ccc(N=Nc4cc(OC(C)C(=O)O)c5ccccc5c4OC(=O)C4(C)CCCCC4=O)cc3)c3ccccc3c2O)c(C(C)(C)CC)c1 (centres unmarked) [Compound 3] |  |  |  |  |  |  |  |  |  |  |  |  |  |  |  |  |  |  | 0.02 | 0.02 | unblocking without dinucleophile ([2]; P-1 or P-3, extended treatment): not unblocked by extended treatment; Density at 520 nm [2, 11]: 1.10; unblocking with hydroxylamine ([2]; P-2 and P-4): the blocking group is readily removed; Density at 520 nm [2, 12]: 0.02; Density at 520 nm [2, 13]: 0.50; Density at 520 nm [2, 14]: 1.25; Red Image Dmax [3]: 2.62; Red Image Gamma [3]: 2.42; Green Density @ Exp. High [3]: 0.43; Green Density @ Exp. Low [3]: 0.26; Red Image Spd. [3]: 99; Green Density @ Exp. None [3]: 0.08
